# According to paper PMC8767159, “Multiparameter Optimization of Trypanocidal Cruzain Inhibitors With In Vivo Activity and Favorable Pharmacokinetics” (Frontiers in Pharmacology, 2022):
# Test system: HFF-1 fibroblasts
# Test: Cytotoxicity MTS assay in HFF-1 fibroblasts
# Type: cell-based, human
# Settings: selectivity index
# Method: The synthesized compounds were evaluated for their cytotoxicity against HFF-1 cells using the MTS assay (Promega, Madison, WI) ([Barltrop et al., 1991]) as previously described ([Ferreira et al., 2019]). HFF-1 fibroblasts were plated at 2 × 10^3/well in 96-well culture plates in RPMI 1640 without phenol red enriched with 10% FCS and incubated overnight at 37°C and 5% CO2. Next, 7 concentrations (0.1–100 µM) of the compounds were added in 3-fold serial dilutions, each concentration in triplicate, and the plates were incubated for 72 h at 37°C and 5% CO2. Next, 20 µl of MTS was added to each well, and the plates were incubated for an additional 4 h at 37°C and 5% CO2. The absorbance was measured at 490 nm using a spectrophotometer, and the data were transferred to SigmaPlot 10.0 (Systat Software Inc., Erkrath, Germany) to determine the IC50 values. Doxorubicin (Sigma–Aldrich) was used as a positive control, and untreated wells (100% growth) were used as negative controls in all plates. All compounds were tested in two independent assays.
row,Compound,SI (IC50 HFF-1/IC50 T. cruzi)
1,CC(=O)Nc1cccc(OCC(=O)NCCc2nc3ccccc3[nH]2)c1 [Compound 3],>20
2,O=C(COc1ccccc1Br)NCCc1nc2ccccc2[nH]1 [Compound 18],> 61
3,O=C(COc1ccccc1[N+](=O)[O-])NCCc1nc2ccccc2[nH]1 [Compound 32],>12
4,O=C(COc1cccc([N+](=O)[O-])c1)NCCc1nc2ccccc2[nH]1 [Compound 8],> 29
5,CC(=O)Nc1ccc(OCC(=O)NCCc2nc3ccccc3[nH]2)cc1 [Compound 2],>8
6,O=C(COc1ccc2ccccc2c1Br)NCCc1nc2ccccc2[nH]1 [Compound 34],>2
7,"O=C(Cn1ccnc1[N+](=O)[O-])NCc1ccccc1 [BZ, benznidazole, reference compound]",> 33
8,O=C(COc1ccccc1)NCCc1nc2ccccc2n1Cc1ccccc1 [Compound 26],>13
9,O=C(COc1ccccc1)NCCc1nc2ccccc2[nH]1 [Compound 1],> 26
10,O=C(COc1ccc(NC(=O)CCCO)cc1)NCCc1nc2ccccc2[nH]1 [Compound 5],>2
11,C=CCCn1c(CCNC(=O)COc2ccccc2Cl)nc2ccccc21 [Compound 38],>9
12,Cc1ccccc1OCC(=O)NCCc1nc2ccccc2[nH]1 [Compound 17],> 35
13,C=CCCn1c(CCNC(=O)COc2ccccc2)nc2ccccc21 [Compound 27],>14
14,O=C(COc1ccc2cc(O)ccc2c1)NCCc1nc2ccccc2[nH]1 [Compound 10],>7
15,O=C(COc1ccc2ccccc2c1)NCCc1nc2ccccc2[nH]1 [Compound 35],> 2
16,O=C(COc1ccc(Br)cc1)NCCc1nc2ccccc2[nH]1 [Compound 33],>15
17,O=C(COc1ccccc1)NCCc1nc2ccccc2n1CCCOc1ccccc1 [Compound 24],>21
18,Cc1ccccc1OCC(=O)NCCc1nc2ccccc2o1 [Compound 37],> 34
19,O=C(COc1ccccc1)NCCc1nc2ccccc2n1CCOc1ccccc1 [Compound 20],>14
20,NC(=O)Cn1c(CCNC(=O)COc2ccccc2)nc2ccccc21 [Compound 28],>15
